# This is one part of the list.
# Tested on: T1, CTL2-GFP (C. trachomatis L2/434/Bu, GFP-expressing)
# T1 construct: L2/434/Bu, GFP-expressing
# Set-up: species or system HeLa; Intracellular C. trachomatis growth in HeLa cells, bulk GFP fluorescence relative to DMSO
# Conditions: bulk GFP, single well; 28.5 h, 10 µM; inhibitor
row,Structure (SMILES),% of control remaining [%]
1,Cc1nc2c(C(=O)NCCOCCO)cnn2c(C)c1Cc1ccc(F)c(Cl)c1 [CBK167457],78.3793
2,CCCc1c(O)n[nH]c1Cc1ccc(Cl)cc1 [CBK078564],96.641
3,Cc1cc(Br)c(NCC(=O)N/N=C/c2ccc(O)cc2)c(Br)c1 [CBK263506],63.2727
4,O=C(C1CC1)N1C2CCC1Cn1c(nc3ccccc3c1=O)C2 (centres unmarked) [CBK284451],119.289
5,COc1ccc(-c2n[nH]c(=S)n2CC(=O)Nc2nc(-c3ccc(C)cc3C)cs2)cc1 [CBK295316],104.744
6,Cc1cc(NC(=O)c2cncnc2)c2ccccc2n1 [CBK122734],86.2983
7,Cc1nc2c(c(=O)[nH]1)CN(Cc1ccc(Cl)c(Cl)c1)CC2 [CBK283949],147.986
8,CNC(=O)C1(Cc2ccccc2-c2cccs2)CCN(C(=O)c2ccccc2OC)CC1 [CBK285685],125.717
9,Cc1ccc(C(N)=O)c(OCC(=O)N2c3ccccc3CCC2C)c1 (centres unmarked) [CBK295633],132.334
10,COc1ccccc1Nc1nc(N)nc(CSCCO)n1 [CBK266679],170.433
11,CCCc1cc(C(=O)N(C)CCOc2ccccc2)[nH]n1 [CBK283162],124.527
12,CNC(=O)C1(Cc2ccc(-c3ccccc3)cc2)CCN(C(=O)c2ccccc2)CC1 [CBK285761],123.955
13,COc1ccccc1NC(=O)CN(c1ccc(C)cc1)S(=O)(=O)c1ccc(F)cc1 [CBK262718],84.2653
14,COc1cccc(-n2nnc3c(SCC(N)=O)ncnc32)c1 [CBK287543],125.514
15,Cc1ccc(OCC(=O)NCC(c2cccs2)N2CCOCC2)cc1C (centres unmarked) [CBK306143],103.745
16,Cc1cccnc1NC(=O)c1cc(O)nc2ccccc12 [CBK300499],135.137
17,Cc1nn(-c2ccccc2)c(Cl)c1CN1C(=O)NC2(CCCCC2)C1=O [CBK306043],123.123
18,O=C1Oc2nc3ccccc3cc2CN1C1CC1 [CBK282870],3.057
19,O=C(C1C2CCCCC21)N1CCC(Oc2cccc(F)c2)CC1 (centres unmarked) [CBK282216],117.895
20,Clc1ccc(Cl)c(-c2nc3ccccc3o2)n1 [CBK095353],115.445
21,O=C(NC1CCCCC1)N[C@H]1CO[C@H]2[C@@H]1OC[C@@H]2Nc1nccc(C2CCCC2)n1 [CBK289531],118.095
22,CCCCc1cc(=O)[nH]c(NCc2ccc(C(F)(F)F)cc2)n1 [CBK003946],93.6183
23,CC1CCCN(C(=O)CCn2c(-c3ccncc3)cc3cccnc32)C1 (centres unmarked) [CBK282152],127.6
24,Cc1nccn1CC1CCCN(Cc2ccnc3ccccc23)C1 (centres unmarked) [CBK281966],159.549
25,Cc1ccc(C2=NO[C@@](CC(=O)O)(C(=O)Nc3ccc4c(c3)OCCO4)C2)cc1 [CBK286653],128.8
26,CC(C)Cc1cc(CNS(=O)(=O)Cc2ccccc2F)on1 [CBK281505],114.52
27,COC(=O)N1CCCCC1C(=O)NCCc1nc(C)cc(C(F)(F)F)n1 (centres unmarked) [CBK306752],141.491

# Looked up above:
# O=C(C1CC1)N1C2CCC1Cn1c(nc3ccccc3c1=O)C2 (centres unmarked) [CBK284451] | % of control remaining [%]: 119.289
# Cc1nccn1CC1CCCN(Cc2ccnc3ccccc23)C1 (centres unmarked) [CBK281966] | % of control remaining [%]: 159.549

# Following part:

row,Structure (SMILES),% of control remaining [%]
1,c1cnc(N2CCCC2)c(OCc2ccsc2)n1 [CBK115664],109.841
2,COc1cc(C2N(Cc3ccccc3)CCN2Cc2ccccc2)ccc1OC(C)=O [CBK261349],100
3,CC(C)OCC1CN(c2cc(CO)c(F)cn2)CCO1 (centres unmarked) [CBK304755],125.816
4,Cc1ccc(-c2c(C(=O)NNC(=S)NCC3CCCO3)csc2C)cc1 (centres unmarked) [CBK267062],131.939
5,c1ccc(OCCN2CCCN(c3nccc(OCCN4CCOCC4)n3)CC2)cc1 [CBK083940],102.134
6,COCCN(Cc1cnn(C)c1)C(=O)c1cc(=O)c2cccc(F)c2[nH]1 [CBK306651],162.473
7,O=C(CCOc1ccccc1)Nc1c(F)cc(F)cc1OC1CCNCC1 [CBK045897T],126.233
8,O=C(c1cc(F)c(F)cc1F)N1CCC2(CCCN(Cc3ccc4ccccc4c3)C2)C1 (centres unmarked) [CBK131998],113.092
9,O=C(CCS(=O)(=O)c1ccccc1)Nc1cncc(OC2CCNCC2)n1 [CBK028438T],93.387
10,CCn1cc(-c2cncn2CCCN2CCCCC2)cn1 [CBK281767],151.543
11,O=C(/C=C\c1ccco1)Oc1ccc(/C=N\NC(=O)c2cncc(Br)c2)cc1 [CBK261385],120.91
12,Cc1ccc2[nH]cc(CCNC(=O)c3cccc(NC(=O)c4ccccc4)c3)c2c1 [CBK269235],137.043
13,CCC(Oc1ccccc1F)C(=O)Nc1cc(C)on1 (centres unmarked) [CBK305558],119.189
14,Cc1nn([C@H]2C[C@@H](O)[C@@H](CO)O2)c(=O)[nH]c1=O [CBK201185],137.018
15,CCC(CO)Nc1cncc(-c2cccc(C(F)(F)F)c2)n1 (centres unmarked) [CBK065783],113.298
16,CCCC(SCC)C(N)=O (centres unmarked) [CBK020895],129.521
17,Cc1c(Cl)c(C(=O)N[C@@H]2CCN(Cc3ccccn3)C[C@H]2O)nn1C [CBK306676],143.181
18,CCC(=O)NCc1ccc(-c2nc3ncccc3o2)cc1 [CBK270220],82.9112
19,Cc1nc(-c2cc(Cl)c(Cl)s2)cs1 [CBK009801],127.367
20,COc1ccc2c(c1)Cc1sc(NC(C)=O)nc1-2 [CBK287876],117.818
21,CC(=O)Oc1cccc(CN2CCCN(S(=O)(=O)c3ccc(-c4ccccc4)cc3)CC2)c1 [CBK063113],133.27
22,O=C(c1cscn1)N1CCC2(CCCNC2)C1 (centres unmarked) [CBK153230C],115.418
23,COc1cc(CCN2CCCCC2)c(C(C)n2cncn2)cc1OC (centres unmarked) [CBK023837G],107.297
24,COc1ccc(OCCNC(=O)c2ccc(-c3cccc(N(C)C)c3)nc2N(C)C(C)=O)cc1 [CBK076587],111.813
25,O=C(NCc1cccnc1)c1ccc2c(c1)C(=O)N(Cc1ccco1)C2=O [CBK269675],146.677
26,CCc1nc(N)nc(N2CCCC3(CN(C)C(=O)O3)C2)c1C (centres unmarked) [CBK306914],119.99
27,COc1cc(/C=C2/C(=O)N(c3nnn[nH]3)N=C2C)ccc1OC(=O)c1cccs1 [CBK266641],109.434

row,Structure (SMILES),% of control remaining [%]
1,CCOC(=O)CN1CCN(c2cc(C#N)ccn2)CC1 [CBK306006],123.204
2,CC(C)Oc1ccc(-c2cc(C(=O)NCc3ccncc3)c3ccccc3n2)cc1 [CBK293957],111.134
3,CN(C)S(=O)(=O)N1CC2(CCN(C(=O)[C@@H]3CN(C(=O)C(C)(C)NC(=O)OC(C)(C)C)C[C@H]3c3cc4ccccc4o3)CC2)c2ccccc21 [CBK014088],82.1879
4,CCN(Cc1ccncc1)C(=O)NCC1CCCCC1 [CBK155132],112.905
5,COc1ccccc1N(CC(O)CN1C(=O)NC(C)(C)C1=O)S(=O)(=O)c1ccc(C)cc1 (centres unmarked) [CBK263581],113.48
6,Cc1nc(N)sc1-c1nnc(SCC(=O)Nc2ccccc2C(F)(F)F)n1C [CBK267359],151.235
7,COc1cncc(C(NC(=O)c2ccc3[nH]nnc3c2)[C@H]2C[C@@H](O)C2)c1 (some centres unmarked) [CBK307049],94.4174
8,CCCCNS(=O)(=O)c1ccccc1[N+](=O)[O-] [CBK261456],100
9,Cc1csc2c(C3CCCN(C(=O)c4cnn(C)c4)C3)nc(C)n12 (centres unmarked) [CBK284595],118.966
10,CC1(C)[N+]([O-])=CC(c2ccc(-c3ccccc3)cc2)=[N+]([O-])C1(C)C [CBK267825],112.813
11,O=C1N[C@]2(CCc3ccccc31)CN(Cc1ccccc1)C[C@H]2CO [CBK284795],107.134
12,Cc1cc(C)n(CC(=O)Nc2ccccc2-n2ccnc2)n1 [CBK283079],92.1455
13,O=C(COc1ccc(Cl)cc1Cl)NC(Cc1ccccc1)C(=O)O (centres unmarked) [CBK261061],100
14,COc1cccc(NC(=O)NCc2ccc(F)cc2)c1 [CBK115590],111.132
15,O=S(=O)(Nc1cccc(-c2cnco2)c1)c1cccc2cccnc12 [CBK067104],99.1677
16,C(=C\c1ccccc1)/CNCCCN1CCOCC1 [CBK278195C],130.23
17,Cc1ccc(Cl)cc1NC(=O)OCCN(C)C [CBK016906],121.314
18,CC1CC(C)CN(C(=O)CN2C3CCC2CC(O)(c2ccco2)C3)C1 (centres unmarked) [CBK284032],111.419
19,CCN(CC(C)C#N)C(=O)c1ccc2ccccc2n1 (centres unmarked) [CBK304801],86.7918
20,Cc1c(C(=O)O)sc(S(=O)(=O)N2CCN(C(=O)Cc3ccsc3)CC2)c1C(=O)O [CBK297134],151.236
21,O=C1NCCc2c1[nH]c1ccc(Cl)cc21 [CBK015755],149.073
22,O=C(N[C@H]1CCN2C(=O)N(c3cccc4nsnc34)C(=O)[C@@H]2C1)c1ccnc(Cl)c1 [CBK289545],130.973
23,CS(=O)(=O)N1CCCc2cc(C(=O)O)ccc21 [CBK287072],109.038
24,Cc1ccc(C(C)C)c(OCC(=O)n2nc(C)cc2C)c1 [CBK058196],90.2685
25,O=C(OCCc1cccnc1)N1CCSCC1 [CBK200160],160.593
26,O=C(Nc1ccc2ccccc2c1)c1ccccc1N(Cc1ccccc1)S(=O)(=O)c1ccccc1 [CBK263751],100.045

# By substructure, the entries above with an NH in an aromatic ring.
row,Structure (SMILES),% of control remaining [%]
2,CCCc1c(O)n[nH]c1Cc1ccc(Cl)cc1 [CBK078564],96.641
5,COc1ccc(-c2n[nH]c(=S)n2CC(=O)Nc2nc(-c3ccc(C)cc3C)cs2)cc1 [CBK295316],104.744
7,Cc1nc2c(c(=O)[nH]1)CN(Cc1ccc(Cl)c(Cl)c1)CC2 [CBK283949],147.986
11,CCCc1cc(C(=O)N(C)CCOc2ccccc2)[nH]n1 [CBK283162],124.527
22,CCCCc1cc(=O)[nH]c(NCc2ccc(C(F)(F)F)cc2)n1 [CBK003946],93.6183
6,COCCN(Cc1cnn(C)c1)C(=O)c1cc(=O)c2cccc(F)c2[nH]1 [CBK306651],162.473
12,Cc1ccc2[nH]cc(CCNC(=O)c3cccc(NC(=O)c4ccccc4)c3)c2c1 [CBK269235],137.043
14,Cc1nn([C@H]2C[C@@H](O)[C@@H](CO)O2)c(=O)[nH]c1=O [CBK201185],137.018
27,COc1cc(/C=C2/C(=O)N(c3nnn[nH]3)N=C2C)ccc1OC(=O)c1cccs1 [CBK266641],109.434
7,COc1cncc(C(NC(=O)c2ccc3[nH]nnc3c2)[C@H]2C[C@@H](O)C2)c1 (some centres unmarked) [CBK307049],94.4174
21,O=C1NCCc2c1[nH]c1ccc(Cl)cc21 [CBK015755],149.073

# Source: paper PMC12040169 (PLOS Biology, 2025)
